These are yes or no findings as the source states them, for the method shown. Binding seen in cells or lysates may run through a third protein. These calls come from enrichment with a bait or labelling near it, and not all partners need be listed.

Chains of the proteins cited; added tags and fusions are not shown. Residues count along the entry.
UniProt P29844, residues 19-656: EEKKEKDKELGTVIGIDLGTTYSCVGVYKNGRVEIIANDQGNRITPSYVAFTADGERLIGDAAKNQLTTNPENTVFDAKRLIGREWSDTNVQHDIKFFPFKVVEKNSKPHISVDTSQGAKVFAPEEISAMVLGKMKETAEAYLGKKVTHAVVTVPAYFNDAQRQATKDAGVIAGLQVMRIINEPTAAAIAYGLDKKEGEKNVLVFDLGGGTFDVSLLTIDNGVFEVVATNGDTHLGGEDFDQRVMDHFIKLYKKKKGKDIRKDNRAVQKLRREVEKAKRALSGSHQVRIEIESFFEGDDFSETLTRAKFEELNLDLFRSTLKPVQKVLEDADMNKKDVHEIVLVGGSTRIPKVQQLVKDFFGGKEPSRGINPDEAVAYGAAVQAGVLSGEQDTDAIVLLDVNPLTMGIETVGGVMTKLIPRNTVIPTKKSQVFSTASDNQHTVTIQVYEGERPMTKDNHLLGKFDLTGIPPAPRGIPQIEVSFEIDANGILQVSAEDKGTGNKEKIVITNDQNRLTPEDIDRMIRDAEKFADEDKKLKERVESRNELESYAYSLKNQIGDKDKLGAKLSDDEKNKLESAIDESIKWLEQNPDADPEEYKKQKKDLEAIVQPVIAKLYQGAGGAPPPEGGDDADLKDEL

The target in this experiment is T1, Drosophila Werner syndrome exonuclease (WRNexo) with 3xHA, from UAS-WRNexo-3xHA flies (Drosophila) (UniProt Q9VE86).
T1 sequence: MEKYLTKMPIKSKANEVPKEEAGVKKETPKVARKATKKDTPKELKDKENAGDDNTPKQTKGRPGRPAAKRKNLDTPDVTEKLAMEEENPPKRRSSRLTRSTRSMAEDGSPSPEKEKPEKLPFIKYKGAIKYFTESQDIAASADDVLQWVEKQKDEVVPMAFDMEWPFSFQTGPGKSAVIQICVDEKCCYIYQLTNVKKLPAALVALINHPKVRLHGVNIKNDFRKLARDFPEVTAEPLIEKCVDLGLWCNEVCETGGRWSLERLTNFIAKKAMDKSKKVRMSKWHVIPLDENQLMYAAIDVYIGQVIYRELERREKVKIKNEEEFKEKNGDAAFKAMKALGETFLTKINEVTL
As to the kind of experiment: affinity purification with mass spectrometry; nuclear protein extraction from midguts of flies with esg-Gal4-driven WRNexo-HA overexpression, immunoprecipitation, SDS-PAGE, in-gel tryptic digestion, LC-MS/MS; three independent experiments.

For the substance “Heat shock 70-kDa protein cognate 3 (Hsc70-3/Bip), endogenous in Drosophila midguts (from UniProt P29844 19-656)”, the binding entry is reported as “binds”.

Values taken from paper PMC12013949.
